Results taken from patent publication US20030073656A1.
Results are given in words; binding and its absence hold for the method and conditions named. Some entries that bind do so weakly or less than the wild type.

By UniProt entry, the sequences of proteins in these tests, tags left out. Where a name states a change or a piece, a line headed by the entry shows the natural chain unless it says otherwise.
UniProt Q04912: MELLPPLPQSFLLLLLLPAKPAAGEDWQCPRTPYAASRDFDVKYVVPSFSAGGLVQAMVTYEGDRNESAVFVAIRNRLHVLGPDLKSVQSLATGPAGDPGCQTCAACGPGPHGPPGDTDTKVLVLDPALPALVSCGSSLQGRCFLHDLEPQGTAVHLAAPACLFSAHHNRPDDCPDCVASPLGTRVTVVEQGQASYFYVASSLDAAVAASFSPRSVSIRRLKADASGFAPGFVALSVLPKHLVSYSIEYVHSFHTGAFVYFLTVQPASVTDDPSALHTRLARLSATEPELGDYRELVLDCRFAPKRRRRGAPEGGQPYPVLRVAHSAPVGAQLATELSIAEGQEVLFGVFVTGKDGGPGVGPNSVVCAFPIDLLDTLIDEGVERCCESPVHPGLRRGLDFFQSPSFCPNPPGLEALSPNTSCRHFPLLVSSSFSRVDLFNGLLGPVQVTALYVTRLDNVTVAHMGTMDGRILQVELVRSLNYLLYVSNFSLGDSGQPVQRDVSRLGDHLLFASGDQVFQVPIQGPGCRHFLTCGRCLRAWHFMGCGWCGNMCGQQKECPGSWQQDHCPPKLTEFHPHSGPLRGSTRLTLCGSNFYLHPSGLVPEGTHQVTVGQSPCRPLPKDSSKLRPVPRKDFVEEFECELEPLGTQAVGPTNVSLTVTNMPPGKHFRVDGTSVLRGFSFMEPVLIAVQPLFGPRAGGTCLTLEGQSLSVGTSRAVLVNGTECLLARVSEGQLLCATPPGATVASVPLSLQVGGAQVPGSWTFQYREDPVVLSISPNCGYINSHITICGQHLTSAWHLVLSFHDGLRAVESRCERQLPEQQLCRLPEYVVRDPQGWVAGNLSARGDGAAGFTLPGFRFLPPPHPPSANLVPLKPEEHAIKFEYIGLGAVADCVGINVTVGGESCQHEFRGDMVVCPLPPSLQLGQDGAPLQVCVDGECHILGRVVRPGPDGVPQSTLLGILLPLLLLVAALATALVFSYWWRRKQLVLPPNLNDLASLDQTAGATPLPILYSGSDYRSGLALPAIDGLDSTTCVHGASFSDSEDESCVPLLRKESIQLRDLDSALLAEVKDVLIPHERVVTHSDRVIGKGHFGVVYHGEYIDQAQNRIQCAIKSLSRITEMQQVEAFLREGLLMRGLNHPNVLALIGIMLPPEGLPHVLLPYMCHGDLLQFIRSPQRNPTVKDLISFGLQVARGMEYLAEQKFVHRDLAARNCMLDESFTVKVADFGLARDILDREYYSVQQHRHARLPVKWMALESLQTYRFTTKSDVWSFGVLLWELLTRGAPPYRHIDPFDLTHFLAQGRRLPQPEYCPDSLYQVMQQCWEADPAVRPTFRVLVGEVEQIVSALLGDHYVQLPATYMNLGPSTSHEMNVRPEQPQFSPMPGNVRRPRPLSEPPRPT

B1: truncated HGFL lacking the 2nd kringle domain (ΔK2) (ligand)
chain: QRSPLNDFQVLRGTELQHLLHAVVPGPWQEDVADAEECAGRCGPLMDCRAFHYNVSSHGCQLLPWTQHSPHTRLRRSGRCDLFQKKDYVRTCIMNNGVGYRGTMATTVGGLPCQAWSHKFPNDHKYTPTLRNGLEENFCRNPDGDPGGPWCYTTDPAVRFQSCGIKSCGSEAQPRQEATTVSCFRGKGEGYRGTANTTTAGVPCQRWDAQIPHQHRFTPEKYACKDLRENFCRNPDGSEAPWCFTLRPGMRAAFCYQIRRCTDDVRPQDCYHGAGEQYRGTVSKTRKGVQCQRWSAETPHKPQFTFTSEPHAQLEENFCRNPDGDSHGPWCYTMDPRTPFDYCALRRCADDQPPSILDPPDQVQFEKCGKRVDRLDQRRSKLRVVGGHPGNSPWTVSLRNRQGQHFCGGSLVKEQWILTARQCFSSCHMPLTGYEVWLGTLFQNPQHGEPSLQRVPVAKMVCGPSGSQLVLLKLERSVTLNQRVALICLPPEWYVVPPGTKCEIAGWGETKGTGNDTVLNVALLNVISNQECNIKHRGRVRESEMCTEGLLAPVGACEGDYGGPLACFTHNCWVLEGIIIPNRVCARSRWPAVFTRVSVFVDWIHKVMRLG
B2: truncated HGFL lacking the 3rd kringle domain (ΔK3) (ligand)
chain: QRSPLNDFQVLRGTELQHLLHAVVPGPWQEDVADAEECAGRCGPLMDCRAFHYNVSSHGCQLLPWTQHSPHTRLRRSGRCDLFQKKDYVRTCIMNNGVGYRGTMATTVGGLPCQAWSHKFPNDHKYTPTLRNGLEENFCRNPDGDPGGPWCYTTDPAVRFQSCGIKSCREAACVWCNGEEYRGAVDRTESGRECQRWDLQHPHQHPFEPGKFLDQGLDDNYCRNPDGSERPWCYTTDPQIEREFCDLPRCGSEAQPRQEATTVSTDDVRPQDCYHGAGEQYRGTVSKTRKGVQCQRWSAETPHKPQFTFTSEPHAQLEENFCRNPDGDSHGPWCYTMDPRTPFDYCALRRCADDQPPSILDPPDQVQFEKCGKRVDRLDQRRSKLRVVGGHPGNSPWTVSLRNRQGQHFCGGSLVKEQWILTARQCFSSCHMPLTGYEVWLGTLFQNPQHGEPSLQRVPVAKMVCGPSGSQLVLLKLERSVTLNQRVALICLPPEWYVVPPGTKCEIAGWGETKGTGNDTVLNVALLNVISNQECNIKHRGRVRESEMCTEGLLAPVGACEGDYGGPLACFTHNCWVLEGIIIPNRVCARSRWPAVFTRVSVFVDWIHKVMRLG
B3: truncated HGFL lacking the 4th kringle domain (ΔK4) (ligand)
chain: QRSPLNDFQVLRGTELQHLLHAVVPGPWQEDVADAEECAGRCGPLMDCRAFHYNVSSHGCQLLPWTQHSPHTRLRRSGRCDLFQKKDYVRTCIMNNGVGYRGTMATTVGGLPCQAWSHKFPNDHKYTPTLRNGLEENFCRNPDGDPGGPWCYTTDPAVRFQSCGIKSCREAACVWCNGEEYRGAVDRTESGRECQRWDLQHPHQHPFEPGKFLDQGLDDNYCRNPDGSERPWCYTTDPQIEREFCDLPRCGSEAQPRQEATTVSCFRGKGEGYRGTANTTTAGVPCQRWDAQIPHQHRFTPEKYACKDLRENFCRNPDGSEAPWCFTLRPGMRAAFCYQIRRCTDDVRPQDADDQPPSILDPPDQVQFEKCGKRVDRLDQRRSKLRVVGGHPGNSPWTVSLRNRQGQHFCGGSLVKEQWILTARQCFSSCHMPLTGYEVWLGTLFQNPQHGEPSLQRVPVAKMVCGPSGSQLVLLKLERSVTLNQRVALICLPPEWYVVPPGTKCEIAGWGETKGTGNDTVLNVALLNVISNQECNIKHRGRVRESEMCTEGLLAPVGACEGDYGGPLACFTHNCWVLEGIIIPNRVCARSRWPAVFTRVSVFVDWIHKVMRLG

molecular target: RON receptor tyrosine kinase (Homo sapiens (Human)) (UniProt Q04912); experiment: RON receptor binding; assay not given

Row | Binder | binding
1 | B1 | binds
2 | B2 | binds
3 | B3 | binds
